Measured data: PubChem BioAssay AID686938 (Drosophila RNAi Screening Center, 2013)

Test: 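Looking for CRAC channel components and the factors controlling them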 (primary screen)
Cells: Drosophila S2R+ cells
Reagents: long dsRNA against Drosophila genes, about 0.25 µg dsRNA per well, roughly 10,000 cells
Time to read-out: 5 days of knock-down before the calcium assay
Treatment: thapsigargin (SERCA pump blocker) to empty calcium stores; entry signal taken 4 min after adding it
Measurement: 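Duplicate raw fluo-4 intensities per well from a plate reader, at rest and four minutes after thapsigargin emptied calcium stores; entry-to-rest ratio filled for only some wells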
Scale: calcium entry signal: higher = stronger calcium signal after store depletion; entry to resting ratio: higher = more calcium entry relative to resting level; resting calcium signal: higher = higher resting calcium signal
Units: calcium entry signal in fluorescence units; resting calcium signal in fluorescence units
Active means: 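Hit if the duplicate-averaged plate z-score for entry over resting signal is under −3; wells with weak total dye signal (Fmax z < −2) or more than 5 off-targets removed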
Calls: active = strongly reduced calcium entry; inactive = no strong reduction
In all, the deposit lists about 23,000 reagents; shown is a random part of those that have a named target and a result. Of all reagents, 75 (0.33%) are marked active. 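Raw plate signals without normalisation; calls rest on plate z-scores that were not deposited; ratio present for only 364 wells.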 Reagents against one gene are numbered here. Not stated in the record: the dose of the treatment.

Knock-down of GstZ2 resulted in: calcium entry signal, replicate 1 = 3.52e7; calcium entry signal, replicate 2 = 3.90e7; resting calcium signal, replicate 1 = 1.61e7; resting calcium signal, replicate 2 = 1.94e7; inactive.
For CG15743, the entry reads calcium entry signal, replicate 1 = 3.69e7; calcium entry signal, replicate 2 = 5.16e7; resting calcium signal, replicate 1 = 1.77e7; resting calcium signal, replicate 2 = 2.32e7; inactive.
Silencing of CG2767 gave: calcium entry signal, replicate 1 = 2.80e7; calcium entry signal, replicate 2 = 3.80e7; resting calcium signal, replicate 1 = 1.24e7; resting calcium signal, replicate 2 = 1.73e7; inactive.
After knock-down of CG18765, the screen gave calcium entry signal, replicate 1 = 4.67e7; calcium entry signal, replicate 2 = 3.84e7; resting calcium signal, replicate 1 = 2.14e7; resting calcium signal, replicate 2 = 2.06e7; inactive.
Nmt showed calcium entry signal, replicate 1 = 2.88e7; calcium entry signal, replicate 2 = 4.09e7; resting calcium signal, replicate 1 = 1.33e7; resting calcium signal, replicate 2 = 2.04e7; inactive.
After knock-down of Evi5 the results were calcium entry signal, replicate 1 = 2.43e7; calcium entry signal, replicate 2 = 3.30e7; resting calcium signal, replicate 1 = 1.12e7; resting calcium signal, replicate 2 = 1.57e7; inactive.
Knock-down of Nt5c resulted in: calcium entry signal, replicate 1 = 3.64e7; calcium entry signal, replicate 2 = 2.80e7; resting calcium signal, replicate 1 = 1.50e7; resting calcium signal, replicate 2 = 1.29e7; inactive.
Knock-down of piwi came out at: calcium entry signal, replicate 1 = 4.17e7; resting calcium signal, replicate 1 = 1.91e7; inactive.
CG30345 gave calcium entry signal, replicate 1 = 2.57e7; calcium entry signal, replicate 2 = 3.73e7; resting calcium signal, replicate 1 = 1.30e7; resting calcium signal, replicate 2 = 1.63e7; inactive.

Just “calcium entry signal, replicate 2”, for 2 of the entries above:
CG18765 = 3.84e7
Nmt = 4.09e7

Further reagents follow.
After knock-down of dpr12 #1 the results were calcium entry signal, replicate 1 = 2.08e7; calcium entry signal, replicate 2 = 4.35e7; resting calcium signal, replicate 1 = 1.22e7; resting calcium signal, replicate 2 = 1.96e7; inactive.
Knock-down of dpr12 #2 resulted in: calcium entry signal, replicate 1 = 4.23e7; calcium entry signal, replicate 2 = 5.52e7; resting calcium signal, replicate 1 = 2.29e7; resting calcium signal, replicate 2 = 2.33e7; inactive.
dpr12 #3 showed calcium entry signal, replicate 1 = 3.77e7; calcium entry signal, replicate 2 = 4.26e7; resting calcium signal, replicate 1 = 1.82e7; resting calcium signal, replicate 2 = 1.81e7; inactive.
CG13021 showed calcium entry signal, replicate 1 = 3.86e7; calcium entry signal, replicate 2 = 2.76e7; entry to resting ratio 2.2; resting calcium signal, replicate 1 = 1.77e7; resting calcium signal, replicate 2 = 1.38e7; inactive.
Against Pp1-87B #1, the entry reads calcium entry signal, replicate 1 = 2.29e7; calcium entry signal, replicate 2 = 3.13e7; resting calcium signal, replicate 1 = 1.41e7; resting calcium signal, replicate 2 = 1.75e7; inactive.
Pp1-87B #2 showed calcium entry signal, replicate 1 = 3.57e7; calcium entry signal, replicate 2 = 3.72e7; resting calcium signal, replicate 1 = 1.78e7; resting calcium signal, replicate 2 = 1.62e7; inactive.
